Values from PubChem BioAssay AID1259425 (University of Nebraska Medical Center, 2018).

Aim: 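Compare each knockdown with KSR1 silencing using changes in marker transcripts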 (primary screen)
Cell system: HCT116 human colon cancer cells
Knock-down reagent: siRNA pool against human genes, 50 nM siRNA
Measured: 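mRNA of six signature genes measured together by branched-DNA assay after 50 nM siRNA pool, blank removed, divided by geometric mean of two housekeeping genes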
Reading the numbers: BNIP3L mRNA: higher = more BNIP3L transcript after knockdown
In all, the deposit lists about 14,000 reagents; below is an unselected part. Not all columns of the deposit are shown. The record does not give: the time to read-out.

Depletion of SPG21 (SPG21 abhydrolase domain containing, maspardin) resulted in: BNIP3L mRNA, set 1 = 0.0672. Against DUS2 (dihydrouridine synthase 2), the entry reads BNIP3L mRNA, set 1 = 0.0619. GDPD5 (glycerophosphodiester phosphodiesterase domain containing 5) gave BNIP3L mRNA, set 1 = 0.066. Against TRIM52 (tripartite motif containing 52), the values are BNIP3L mRNA, set 1 = 0.326. Against AARS1 (alanyl-tRNA synthetase 1) the deposit lists BNIP3L mRNA, set 1 = 0.229. After knock-down of DBR1 (debranching RNA lariats 1) the results were BNIP3L mRNA, set 1 = 0.169.

After knock-down of GLDC (glycine decarboxylase), the screen gave BNIP3L mRNA, set 1 = 0.0818. ADGRB2 (adhesion G protein-coupled receptor B2) showed BNIP3L mRNA, set 1 = 0.253. CETN3 (centrin 3) showed BNIP3L mRNA, set 1 = 0.409. Depletion of SLC25A12 resulted in: BNIP3L mRNA, set 1 = 0.133. With knock-down of RNF44 (ring finger protein 44), the screen gave BNIP3L mRNA, set 1 = 0.0428. With knock-down of ACVR1B (activin A receptor type 1B), the record shows BNIP3L mRNA, set 1 = 0.116.

For PTTG1, the values are BNIP3L mRNA, set 1 = 0.0642. Depletion of NPVF (neuropeptide VF precursor) came out at: BNIP3L mRNA, set 1 = 0.326. After knock-down of ICAM1 (intercellular adhesion molecule 1), the screen gave BNIP3L mRNA, set 1 = 0.222. PBK (PDZ binding kinase) scored BNIP3L mRNA, set 1 = 0.128. Depletion of FBXO21 (F-box protein 21) resulted in: BNIP3L mRNA, set 1 = 0.102. ZCWPW1 (zinc finger CW-type and PWWP domain containing 1) scored BNIP3L mRNA, set 1 = 0.156.

Silencing of TCP10L (t-complex 10 like) came out at: BNIP3L mRNA, set 1 = 0.249. Depletion of CZIB (CXXC motif containing zinc binding protein) gave: BNIP3L mRNA, set 1 = 0.113. Depletion of TPD52 (tumor protein D52) came out at: BNIP3L mRNA, set 1 = 0.109. CCDC59 (coiled-coil domain containing 59) scored BNIP3L mRNA, set 1 = 0.125. EWSR1 (EWS RNA binding protein 1) gave BNIP3L mRNA, set 1 = 0.09. LRMDA (leucine rich melanocyte differentiation associated) gave BNIP3L mRNA, set 1 = 0.207.

After knock-down of NEB (nebulin), the screen gave BNIP3L mRNA, set 1 = 0.0782. LRCH3 showed BNIP3L mRNA, set 1 = 0.0881. Silencing of SRP54 (signal recognition particle 54) resulted in: BNIP3L mRNA, set 1 = 0.126. Depletion of ACAD8 (acyl-CoA dehydrogenase family member 8) resulted in: BNIP3L mRNA, set 1 = 0.0891.
